Results are given in words; binding and its absence hold for the method and conditions named.
Tests used:
[1] = molecular target: Lipoprotein signal peptidase (UniProt P00804); experiment: native MS; LILBID-MS of the membrane protein in MSP1E3D1 (DMPG) nanodiscs; 50 mM ammonium acetate pH 6.8; anionic mode; laser pulse energy between 9.5 and 23 mJ; unlabeled and (KcsA) 15N, 2H labeled samples; both purified
[2] = molecular target: Phospho-N-acetylmuramyl-pentapeptide-transferase E.coli (E. coli) (UniProt P0A6W3); experiment: condition: only in nanodiscs of the zwitterionic lipid DMPC, without anionic lipid; native MS; LILBID-MS of the membrane protein in MSP1E3D1 (DMPC) nanodiscs; 50 mM ammonium acetate pH 6.8; both purified

| binding [1] | binding [2] | Binder |
| --- | --- | --- |
| no binding | – | Lipoprotein signal peptidase (enzyme, UniProt P00804 1-164) MSQSICSTGLRWLWLVVVVLIIDLGSKYLILQNFALGDTVPLFPSLNLHYARNYGAAFSFLADSGGWQRWFFAGIAIGISVILAVMMYRSKATQKLNNIAYALIIGGALGNLFDRLWHGFVVDMIDFYVGDWHFATFNLADTAICVGAALIVLEGFLPSRAKKQ |
| – | no binding | Phospho-N-acetylmuramyl-pentapeptide-transferase E.coli (enzyme, E. coli, UniProt P0A6W3 1-360, looked up, MraY translocase of E. coli; theoretical mass of the construct 42.22 kDa; Dimer in DMPG and in DMPC/DMPG nanodiscs, monomer in DMPC nanodiscs; also called Ec-MraY; E. coli MraY; source: cell-free (CECF, E. coli A19 lysate), co-translationally inserted into nanodiscs, purified (Streptactin)) MLVWLAEHLVKYYSGFNVFSYLTFRAIVSLLTALFISLWMGPRMIAHLQKLSFGQVVRNDGPESHFSKRGTPTMGGIMILTAIVISVLLWAYPSNPYVWCVLVVLVGYGVIGFVDDYRKVVRKDTKGLIARWKYFWMSVIALGVAFALYLAGKDTPATQLVVPFFKDVMPQLGLFYILLAYFVIVGTGNAVNLTDGLDGLAIMPTVFVAGGFALVAWATGNMNFASYLHIPYLRHAGELVIVCTAIVGAGLGFLWFNTYPAQVFMGDVGSLALGGALGIIAVLLRQEFLLVIMGGVFVVETLSVILQVGSFKLRGQRIFRMAPIHHHYELKGWPEPRVIVRFWIISLMLVLIGLATLKVR |

From paper PMC5291076, “Analyzing native membrane protein assembly in nanodiscs by combined non-covalent mass spectrometry and synthetic biology” (eLife, 2017)
